Measurements from paper PMC12406256, “Food Additives Inhibit Intestinal Drug Transporters but Have Limited Effect on In Vitro Drug Permeability” (Molecular Pharmaceutics, 2025).

Assay: Fluorescence interference studies
Conditions: for interference with the fluorescence of the substrates: highest possible concentration, all substrates

Row | SMILES | interference with the fluorescence of the substrates | quenching of LY fluorescence (highest concentration) [%] | quenching of LY and 5-CF fluorescence (lower concentrations (10-50% of maximal achievable)) [%]
1 | Cc1cc(C(C)(C)C)c(O)c(C(C)(C)C)c1 [butylated hydroxytoluene] | did not interfere | – | –
2 | CCCCCCCCOC(=O)c1cc(O)c(O)c(O)c1 [octyl gallate] | did not interfere | – | –
3 | CCCCCCCCCCCCOC(=O)c1cc(O)c(O)c(O)c1 [dodecyl gallate] | – | ≥ 20 | –
4 | CC1=C(/C=C/C(C)=C/C=C/C(C)=C/C=C/C=C(C)/C=C/C=C(C)/C=C/C2=C(C)CCCC2(C)C)C(C)(C)CCC1 [beta-carotene] | more than 20% | – | ≤ 30
